Experimental data as given in publication PMC2638020.
These are yes or no findings as the source states them, for the method shown.

Chains of the proteins cited; added tags and fusions are not shown. Lines headed by an entry give the natural chain unless they say otherwise; changes in a name come on top. A line that says so, or that is headed by a name, gives the form on record, which may keep a tag or linker. Residues count along the entry.
UniProt P23469, residues 107-697: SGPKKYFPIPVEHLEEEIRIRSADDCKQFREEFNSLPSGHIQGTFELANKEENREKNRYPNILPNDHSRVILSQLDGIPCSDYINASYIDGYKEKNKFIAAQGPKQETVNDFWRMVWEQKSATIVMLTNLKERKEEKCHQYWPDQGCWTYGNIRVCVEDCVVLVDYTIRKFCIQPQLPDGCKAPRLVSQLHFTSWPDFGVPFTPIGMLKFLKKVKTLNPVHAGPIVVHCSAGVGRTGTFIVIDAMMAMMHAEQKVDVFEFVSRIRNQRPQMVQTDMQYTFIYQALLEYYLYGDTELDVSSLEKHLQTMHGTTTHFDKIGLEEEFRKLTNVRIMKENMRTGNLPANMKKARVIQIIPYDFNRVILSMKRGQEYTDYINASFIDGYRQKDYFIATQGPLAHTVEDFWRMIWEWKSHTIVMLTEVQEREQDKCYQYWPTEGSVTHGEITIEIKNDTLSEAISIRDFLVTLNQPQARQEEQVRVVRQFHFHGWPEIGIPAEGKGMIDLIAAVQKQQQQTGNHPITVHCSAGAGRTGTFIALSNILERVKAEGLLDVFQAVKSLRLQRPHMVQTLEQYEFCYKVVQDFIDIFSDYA
RPTPγ tandem phosphatase domains, mutant DDKK (P23470, form named): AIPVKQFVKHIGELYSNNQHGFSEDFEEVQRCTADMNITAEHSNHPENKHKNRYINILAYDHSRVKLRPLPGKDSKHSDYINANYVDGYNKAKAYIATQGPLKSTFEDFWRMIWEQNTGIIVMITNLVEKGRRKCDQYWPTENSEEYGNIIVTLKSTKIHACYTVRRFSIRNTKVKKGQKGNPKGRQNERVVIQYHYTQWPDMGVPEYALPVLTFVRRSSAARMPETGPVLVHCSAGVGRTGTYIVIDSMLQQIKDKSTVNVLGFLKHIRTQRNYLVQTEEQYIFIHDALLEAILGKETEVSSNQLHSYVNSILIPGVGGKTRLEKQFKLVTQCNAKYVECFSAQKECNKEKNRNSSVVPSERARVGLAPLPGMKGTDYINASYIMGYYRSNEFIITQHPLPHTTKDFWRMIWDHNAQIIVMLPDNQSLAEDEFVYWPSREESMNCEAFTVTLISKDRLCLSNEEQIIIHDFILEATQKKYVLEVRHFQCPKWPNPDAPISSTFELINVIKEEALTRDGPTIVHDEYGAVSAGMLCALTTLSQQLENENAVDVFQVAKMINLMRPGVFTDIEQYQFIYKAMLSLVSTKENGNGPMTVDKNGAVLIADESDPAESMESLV
RPTPγ tandem phosphatase domains, mutant RKEE (P23470, form named): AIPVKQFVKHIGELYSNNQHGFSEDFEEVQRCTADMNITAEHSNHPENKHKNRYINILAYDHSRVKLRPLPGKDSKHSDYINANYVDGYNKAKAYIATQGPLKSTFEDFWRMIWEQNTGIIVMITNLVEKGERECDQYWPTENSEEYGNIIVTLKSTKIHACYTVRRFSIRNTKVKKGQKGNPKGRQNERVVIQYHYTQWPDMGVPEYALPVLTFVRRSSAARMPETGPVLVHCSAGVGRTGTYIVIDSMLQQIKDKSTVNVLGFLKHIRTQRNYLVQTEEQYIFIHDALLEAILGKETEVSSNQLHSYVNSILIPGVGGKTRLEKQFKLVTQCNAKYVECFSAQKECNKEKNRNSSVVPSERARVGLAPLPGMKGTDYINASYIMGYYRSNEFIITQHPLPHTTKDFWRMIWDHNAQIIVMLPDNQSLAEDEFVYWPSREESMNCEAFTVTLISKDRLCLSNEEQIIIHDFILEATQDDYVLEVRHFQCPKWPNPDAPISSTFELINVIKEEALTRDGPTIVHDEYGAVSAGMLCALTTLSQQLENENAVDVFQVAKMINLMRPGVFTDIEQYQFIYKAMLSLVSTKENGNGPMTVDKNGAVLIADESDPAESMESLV

Assays:
[1] = molecular target: RPTPɛ tandem phosphatase domains (human) (UniProt P23469); test: AUC; sedimentation velocity; 0.2–0.8 mg/ml protein in 10 mM HEPES (pH 7.5), 150 mM NaCl, 1 mM TCEP, 8°C, 50,000 rpm; c(s) distributions (SEDFIT); both purified
[2] = molecular target: RPTPγ tandem phosphatase domains, mutant DDKK (human) (UniProt P23470); test: AUC; sedimentation equilibrium; 0.2, 0.4 and 0.8 mg/ml, 7500 and 10,000 rpm; global fit with a self-association model; dimer to monomers; both purified
[3] = molecular target: RPTPγ tandem phosphatase domains, mutant DDKK (human) (UniProt P23470); test: AUC; sedimentation velocity; 0.2–0.8 mg/ml protein in 10 mM HEPES (pH 7.5), 150 mM NaCl, 1 mM TCEP, 8°C, 50,000 rpm; c(s) distributions (SEDFIT); both purified
[4] = molecular target: RPTPγ tandem phosphatase domains, mutant RKEE (human) (UniProt P23470); test: AUC; sedimentation equilibrium; 0.2, 0.4 and 0.8 mg/ml, 7500 and 10,000 rpm; global fit with a self-association model; dimer to monomers; both purified
[5] = molecular target: RPTPγ tandem phosphatase domains, mutant RKEE (human) (UniProt P23470); test: AUC; sedimentation velocity; 0.2–0.8 mg/ml protein in 10 mM HEPES (pH 7.5), 150 mM NaCl, 1 mM TCEP, 8°C, 50,000 rpm; c(s) distributions (SEDFIT); both purified

## RPTPɛ tandem phosphatase domains (from UniProt P23469 107-697) (domain or fragment)
[1]
  binding: no binding (tested: 0.2–0.8 mg/ml)

## RPTPγ tandem phosphatase domains, mutant DDKK (from UniProt P23470 827-1445) (domain or fragment)
[2]
  binding: no binding (tested: 0.2, 0.4, and 0.8 mg/ml)
[3]
  binding: no binding (tested: 0.4 mg/ml)

## RPTPγ tandem phosphatase domains, mutant RKEE (from UniProt P23470 827-1445) (domain or fragment)
[4]
  binding: no binding (tested: 0.2, 0.4, and 0.8 mg/ml)
[5]
  binding: no binding (tested: 0.8 mg/ml)
